Taken from: PubChem BioAssay AID743121 (NCATS, 2013)
Shown is a random part of about 26,000 reagents. 167 of them (0.63%) were called active. 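Calls are per gene from RSA p-values that are not deposited; an individual active-marked siRNA can sensitise only weakly.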 Reagents against one gene are numbered here. Not all columns of the deposit are shown.

Aim: 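Knock-downs that sensitise breast cancer cells to camptothecin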 (primary screen)
Cells: MDA-MB-231 cells, a human breast cancer line
Knock-down reagent: single siRNA against human genes, 20 nM siRNA (0.8 pmol per well)
Duration: 120 h (drug added 48 h after transfection, read 72 h later)
Treatment: camptothecin 20 nM (about EC30) for 72 h; vehicle 0.1% DMSO in parallel plates
Detection: 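CellTiter-Glo ATP signal, scaled to control siRNA as percent viability; sensitisation given as log2 of untreated divided by camptothecin-treated viability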
Reading the numbers: log2 vehicle/camptothecin viability: higher = stronger sensitisation to camptothecin
Call rule: 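Each gene scored by redundant siRNA activity (RSA) over its individual siRNA ratios; a gene is called active at p < 0.001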

What is on record for RAB3B #1?
log2 vehicle/camptothecin viability: -0.000489; Call: inactive

What is on record for RAB3B #2?
log2 vehicle/camptothecin viability: 0.47; Call: inactive

For RAB3B #3, what was measured?
log2 vehicle/camptothecin viability: 0.307; Call: inactive

What is on record for RAB3B #4?
log2 vehicle/camptothecin viability: -0.35; Call: inactive

For ZSCAN22 #1, how do the results read?
log2 vehicle/camptothecin viability: -0.441; Call: inactive

How did the screen score ZSCAN22 #2?
log2 vehicle/camptothecin viability: -0.0928; Call: inactive

For ZSCAN22 #3, what does the deposit list?
log2 vehicle/camptothecin viability: 0.147; Call: inactive

With ZSCAN22 #4, what does the deposit list?
log2 vehicle/camptothecin viability: -0.0422; Call: inactive

For GNRHR2 #1, what does the deposit list?
log2 vehicle/camptothecin viability: -0.388; Call: inactive

How did the screen score GNRHR2 #2?
log2 vehicle/camptothecin viability: 0.38; Call: inactive

What did the screen give for GNRHR2 #3?
log2 vehicle/camptothecin viability: -0.206; Call: inactive

With GNRHR2 #4, what does the deposit list?
log2 vehicle/camptothecin viability: -0.0387; Call: inactive

With SF3A1 #1, what does the deposit list?
log2 vehicle/camptothecin viability: 0.239; Call: inactive

For SF3A1 #2, what was measured?
log2 vehicle/camptothecin viability: -0.45; Call: inactive

What is on record for SF3A1 #3?
log2 vehicle/camptothecin viability: -0.381; Call: inactive

How did the screen score ADGRF5 #1?
log2 vehicle/camptothecin viability: -0.234; Call: inactive

For ADGRF5 #2, what does the deposit list?
log2 vehicle/camptothecin viability: 0.7; Call: inactive

What is on record for ADGRF5 #3?
log2 vehicle/camptothecin viability: 1.2; Call: inactive

What did the screen give for ADGRF5 #4?
log2 vehicle/camptothecin viability: 0.0578; Call: inactive

What did the screen give for CCL17 #1?
log2 vehicle/camptothecin viability: -0.201; Call: inactive

For CCL17 #2, how do the results read?
log2 vehicle/camptothecin viability: -0.223; Call: inactive

For CCL17 #3, what was measured?
log2 vehicle/camptothecin viability: -0.541; Call: inactive

With CCL17 #4, what was measured?
log2 vehicle/camptothecin viability: -0.546; Call: inactive

For CAPN10 #1, what does the deposit list?
log2 vehicle/camptothecin viability: 0.239; Call: inactive

Which result is listed for CAPN10 #2?
log2 vehicle/camptothecin viability: 0.54; Call: inactive

Which result is listed for CAPN10 #3?
log2 vehicle/camptothecin viability: -0.279; Call: inactive

Which result is listed for CAPN10 #4?
log2 vehicle/camptothecin viability: -0.588; Call: inactive

With CAPN10 #5, what does the deposit list?
log2 vehicle/camptothecin viability: 0.254; Call: inactive

For CAPN10 #6, how do the results read?
log2 vehicle/camptothecin viability: -0.173; Call: inactive

Which result is listed for CAPN10 #7?
log2 vehicle/camptothecin viability: 1.09; Call: inactive

What did the screen give for CAPN10 #8?
log2 vehicle/camptothecin viability: -0.396; Call: inactive

With CAPN10 #9, what was measured?
log2 vehicle/camptothecin viability: -0.0307; Call: inactive

How did the screen score MAN2B1 #1?
log2 vehicle/camptothecin viability: 0.238; Call: inactive

How did the screen score MAN2B1 #2?
log2 vehicle/camptothecin viability: -0.0881; Call: inactive

How did the screen score MAN2B1 #3?
log2 vehicle/camptothecin viability: -0.0725; Call: inactive

With MAN2B1 #4, how do the results read?
log2 vehicle/camptothecin viability: -0.18; Call: inactive

Targets listed so far whose target name starts with Z or z:
ZSCAN22 #1: log2 vehicle/camptothecin viability = -0.441; Call = inactive
ZSCAN22 #2: log2 vehicle/camptothecin viability = -0.0928; Call = inactive
ZSCAN22 #3: log2 vehicle/camptothecin viability = 0.147; Call = inactive
ZSCAN22 #4: log2 vehicle/camptothecin viability = -0.0422; Call = inactive
